Measurements reported in PubChem BioAssay AID1259266 (Sanger Institute, 2017)

- Test: 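Find knock-downs that kill LS123 cells or act with anchor drugs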 (primary screen)
- Cell system: LS123 human colorectal cancer cells
- Knock-down reagent: siRNA pool against human genes
- Challenge: anchor drugs BYL719 (1 µM), cetuximab (5 µg/ml) or trametinib (10 nM), each chosen to barely slow growth alone; DMSO vehicle as the drug-free arm
- Measured: 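Viability relative to non-targeting control pools, replicate mean, with a robust z-score for knock-down alone and synergy scores for each anchor drug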
- Direction: robust z-score, knock-down alone: higher = more cells surviving after knock-down; viability, knock-down alone: higher = more viable cells
- Call rule: 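Essential when the robust z-score of the knock-down alone is below -3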
- Meaning of the calls: active = essential (knock-down alone cuts viability); inactive = no change
This is an unselected part of 794 reagents tested. Of all reagents, 16 (2%) were called active. 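Calls reflect knock-down alone, not drug synergy; viability seems capped at 1 and z-scores at 0.585.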 Unmarked entries are inactive. Not all columns of the deposit are shown. Not stated in the record: the amount of reagent, the time to read-out.

Gene | robust z-score, knock-down alone | viability, knock-down alone (fraction of control)
MPP1 (MAGUK p55 scaffold protein 1) | 0.585 | 1
ROR2 (ROR family WNT receptor 2) | 0.585 | 1
PIKFYVE (phosphoinositide kinase, FYVE-type zinc finger containing) | 0.585 | 1
STK17A (serine/threonine kinase 17a) | 0.585 | 1
MYLK3 (myosin light chain kinase 3) | 0.585 | 1
FES (FES proto-oncogene, tyrosine kinase) | -1.78 | 0.859
DDR1 (discoidin domain receptor tyrosine kinase 1) | 0.585 | 1
ROCK2 (Rho associated coiled-coil containing protein kinase 2) | 0.585 | 1
ADK (adenosine kinase) | 0.585 | 1
PRKAR1A | 0.585 | 1
MAP3K5 (mitogen-activated protein kinase kinase kinase 5) | 0.585 | 1
FGR (FGR proto-oncogene, Src family tyrosine kinase) | -0.855 | 0.914
CAMK2B (calcium/calmodulin dependent protein kinase II beta) | 0.585 | 1
MAGI2 | 0.585 | 1
CKS1B (CDC28 protein kinase regulatory subunit 1B) | 0.215 | 0.978
SLK (STE20 like kinase) | 0.585 | 1
PDPK1 (3-phosphoinositide dependent protein kinase 1) | 0.585 | 1
RPS6KA1 (ribosomal protein S6 kinase A1) | 0.585 | 1
TRIB2 (tribbles pseudokinase 2) | -0.782 | 0.919
PAK4 (p21 (RAC1) activated kinase 4) | 0.585 | 1
HUS1 (HUS1 checkpoint clamp component) | 0.585 | 1
STK11 (serine/threonine kinase 11) | 0.177 | 0.976
HCK (HCK proto-oncogene, Src family tyrosine kinase) | 0.585 | 1
MUSK (muscle associated receptor tyrosine kinase) | -1.93 | 0.851
BMPR2 (bone morphogenetic protein receptor type 2) | 0.0745 | 0.97
EPHA6 (EPH receptor A6) | -3.13 (active) | 0.78
STK39 (serine/threonine kinase 39) | -2.41 | 0.822
PIM2 (Pim-2 proto-oncogene, serine/threonine kinase) | 0.418 | 0.99
TSSK2 (testis specific serine kinase 2) | -2.07 | 0.842
RIPK1 (receptor interacting serine/threonine kinase 1) | -1.27 | 0.89
MKNK1 (MAPK interacting serine/threonine kinase 1) | 0.585 | 1
PKIA (cAMP-dependent protein kinase inhibitor alpha) | 0.585 | 1
FN3K (fructosamine 3 kinase) | 0.585 | 1
CDK1 (cyclin dependent kinase 1) | 0.585 | 1

Individual results from the list.
For “viability, knock-down alone (fraction of control)”, TRIB2 (tribbles pseudokinase 2) is entered as 0.919
Result for CKS1B (CDC28 protein kinase regulatory subunit 1B) in “viability, knock-down alone (fraction of control)”: 0.978
